From the supplement of paper PMC4862054
Most values lie at the level of the controls, where differences are scatter.

Columns and labels:
Test in all cases: normalised response (% of control), CellTox Green; higher = less cell death (100 = DMSO, 0 = benzethonium chloride kill control)
Conditions in all cases: incubation time: 72 h
CAL-85-1 = system: CAL-85-1
Description: (§1)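 DSRT, 72 h incubation, CellTox Green / CellTiter-Glo readout. Signal is normalised to DMSO and benzethonium chloride controls. Value is the normalised response at dose 2.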

DU-4475 = system: DU-4475
Description: as §1

BT-474 = system: BT-474
Description: as §1

HCC1937 = system: HCC1937
Description: as §1

MDA-MB-231 = system: MDA-MB-231
Description: as §1

MDA-MB-453 = system: MDA-MB-453
Description: as §1

HCC1143 = system: HCC1143
Description: as §1

BT-549 = system: BT-549
Description: as §1

CAL-51 = system: CAL-51
Description: as §1

MDA-MB-468 = system: MDA-MB-468
Description: as §1

CAL-148 = system: CAL-148
Description: as §1

MDA-MB-436 = system: MDA-MB-436
Description: as §1

Hs578T = system: Hs578T
Description: as §1

HCC1599 = system: HCC1599
Description: as §1

CAL-120 = system: CAL-120
Description: as §1

MFM-223 = system: MFM-223
Description: as §1

HDQ-P1 = system: HDQ-P1
Description: as §1

MCF-10A = system: MCF-10A
Description: as §1

| Compound | normalised response (CAL-85-1) [%] | normalised response (DU-4475) [%] | normalised response (BT-474) [%] | normalised response (HCC1937) [%] | normalised response (MDA-MB-231) [%] | normalised response (MDA-MB-453) [%] | normalised response (HCC1143) [%] | normalised response (BT-549) [%] | normalised response (CAL-51) [%] | normalised response (MDA-MB-468) [%] | normalised response (CAL-148) [%] | normalised response (MDA-MB-436) [%] | normalised response (Hs578T) [%] | normalised response (HCC1599) [%] | normalised response (CAL-120) [%] | normalised response (MFM-223) [%] | normalised response (HDQ-P1) [%] | normalised response (MCF-10A) [%] |
| --- | --- | --- | --- | --- | --- | --- | --- | --- | --- | --- | --- | --- | --- | --- | --- | --- | --- | --- |
| O=C(/C=C/c1cccnc1)NCCCCC1CCN(C(=O)c2ccccc2)CC1 [Daporinad] (1 nM) | 97.9 | 102 | 99 | 101 | 97.3 | 101 | 114 | 105 | 106 | 108 | 103 | 90.2 | 124 | 98.2 | 94.7 | 98.6 | 95 | 108 |
| Cn1cc(C2=C(c3cn(C4CCN(Cc5ccccn5)CC4)c4ccccc34)C(=O)NC2=O)c2ccccc21 [Enzastaurin] (10 nM) | 98.6 | 114 | 102 | 92.2 | 102 | 105 | 118 | 90 | – | 98.7 | 101 | 106 | 101 | 112 | 106 | 83.2 | 122 | 118 |
| CN(Cc1cnc2nc(N)nc(N)c2n1)c1ccc(C(=O)N[C@@H](CCC(=O)O)C(=O)O)cc1 [Methotrexate] (50 nM) | 97.3 | 102 | 101 | 97.9 | 106 | 99.5 | 112 | 105 | 110 | 107 | 102 | 98.2 | 114 | 105 | 99.1 | 102 | 116 | 75.8 |
| N#Cc1ccc(C(c2ccc(C#N)cc2)n2cncn2)cc1 [Letrozole] (10 nM) | 100 | 97.2 | 101 | 101 | 102 | 62.6 | 105 | 95.3 | 112 | 120 | 50.4 | 87.5 | 111 | 100 | 97.5 | 98 | 105 | 99.3 |
| S=P(N1CC1)(N1CC1)N1CC1 [Thio-TEPA] (50 nM) | 95.8 | 96.6 | 100 | 109 | 83.3 | 100 | – | 97.3 | 78.7 | 96 | – | 96.1 | 115 | 94 | 90.4 | 102 | 117 | 102 |
| CNC(=O)c1cc(Oc2ccc(NC(=O)Nc3cc(C(C)(C)C)nn3-c3ccc4ncccc4c3)c(F)c2)ccn1 [Rebastinib] (1 nM) | 106 | 97.4 | 102 | – | 107 | 100 | 110 | 95.8 | 109 | 87.8 | 110 | 100 | 88.5 | 103 | 98.4 | 104 | 114 | 94.4 |
| CC(C)C[C@@H](C(=O)N[C@H](C(=O)OC1CCCC1)c1ccccc1)[C@H](O)C(=O)NO [Tosedostat] (10 nM) | 85.6 | 101 | 103 | 116 | 87 | 90.9 | 100 | 97.8 | 99.3 | 75.6 | – | 84.2 | 122 | 105 | 96.9 | – | 112 | 87.5 |
| CCCCC(=O)OCC(=O)[C@]1(O)Cc2c(O)c3c(c(O)c2[C@@H](O[C@H]2C[C@H](NC(=O)C(F)(F)F)[C@H](O)[C@H](C)O2)C1)C(=O)c1c(OC)cccc1C3=O [Valrubicin] (5 nM) | 90.5 | 110 | 105 | 125 | 125 | 106 | 111 | 103 | 62.2 | 122 | 111 | 101 | 100 | 118 | 101 | 107 | 111 | 55.7 |
| O=C(CCBr)N1CCN(C(=O)CCBr)CC1 [Pipobroman] (10 nM) | 101 | 96.1 | 101 | 99.7 | 110 | 97.7 | – | 91 | 83.9 | 81.5 | 93.7 | 96.8 | 124 | 94.8 | 98.1 | 102 | 114 | 108 |
